We go through 19 molecules from PubChem BioAssay AID248 (DTP/NCI, 2004).

The list is a part of this screen's results and no random one: it gathers tests that were run many times, whatever their T/C, doses with no T/C, and many T/C values between a quarter and a half above the control. Further doses and runs are listed elsewhere. T/C is the treated group as % of the vehicle group. Some doses have a count of surviving animals in place of a T/C: the source files T/C as zero there, which appears to mark a toxic dose or a test without result, not a measured value. Some doses without a T/C left all or most animals alive at the check, yet need not have been tolerated: the source hardly ever lists a survival T/C far under the control, and the zero likely stands for such cases as well. Counts of survivors are from the toxicity check (mostly the fifth day) where no day follows; animals may have died later. Schedules are NCI's codes, read here as Q, the interval in days (D) or hours (H), X, the number of doses. Some schedules carry Z or #; the key to these is not given. Some molecules as drawn cover several salts, stereoisomers or complexes of the source; a dose is that of the sample tested. Where survival is the endpoint, the PubChem record calls one and a half times the control and up active, and a quarter to a half above the control has no call in these data; cut-offs in other NCI protocols can differ. Some entries hold several experiments; their values stand side by side, smallest first. Some T/C values carry the count of animals alive at the toxicity check (mostly the fifth day); without a count, all were alive then.

The assay deals with L1210 leukemia ip in BDF1 mice, survival T/C. Briefly: NCI In Vivo Anticancer Drug Screen. Data for tumor model L1210 Leukemia (intraperitoneal) in B6D2F1 (BDF1) mice. As to conditions: T/C endpoint: mean survival time, higher T/C = longer survival.
Where [1] appears, read: dose: 100.0 mg/kg/injection, schedule: Q04DX003 (ip), vehicle: saline.
[2] abbreviates: dose: 200.0 mg/kg/injection, schedule: Q04DX003 (ip), vehicle: saline.
The mark [3] stands for this setting: dose: 400.0 mg/kg/injection, schedule: Q04DX003 (ip), vehicle: saline.
The mark [4] stands for this setting: dose: 150.0 mg/kg/injection, schedule: Q01DX001 (ip), vehicle: saline.
Setting [5] is: dose: 300.0 mg/kg/injection, schedule: Q01DX001 (ip), vehicle: saline.
The mark [6] stands for this setting: dose: 400.0 mg/kg/injection, schedule: Q04DX003 (ip), vehicle: saline with Tween-80.
[7] abbreviates: dose: 400.0 mg/kg/injection, schedule: Q01DX001 (ip), vehicle: saline.
The mark [8] stands for this setting: dose: 200.0 mg/kg/injection, schedule: Q01DX001 (ip), vehicle: saline.

In the case of `CC[P+]1(c2ccccc2)CCCc2ccc3ccccc3c21` (configuration not stated), the survivor count is, setting by setting: (dose: 12.5 mg/kg/injection, schedule: Q01DX009 (ip), vehicle: saline with Tween-80) 3 of 6; (dose: 25.0 mg/kg/injection, schedule: Q01DX009 (ip), vehicle: saline with Tween-80) 0 of 6; under setting [1], 0 of 6; under setting [2], 0 of 6; under setting [3], 0 of 6.
In the case of `O=c1[nH]nc(-c2ccncc2)s1`, the survivor count under setting [4] is 3 of 6, the survivor count under setting [2] is listed as 2 of 6, the survivor count under setting [5] is on record as 1 of 6 and the survivor count under setting [3] is listed as 0 of 6.
For the molecule `C=C(Cl)CSc1ncnc2nc[nH]c12`, the survivor count is given as 2 of 6 under setting [4] and 1 of 6 under setting [5].
With `C=CCCC[P+](c1ccccc1)(c1ccccc1)c1ccccc1`, the survivor count is, setting by setting: (dose: 50.0 mg/kg/injection, schedule: Q01DX009 (ip), vehicle: saline with Tween-80) 2 of 3; (dose: 100.0 mg/kg/injection, schedule: Q01DX009 (ip), vehicle: saline) 0 of 3; (dose: 200.0 mg/kg/injection, schedule: Q01DX009 (ip), vehicle: saline) 0 of 3.
As for `N#CSC/C(Br)=C/Br`, the survivor count is 1 of 6 (dose: 100.0 mg/kg/injection, schedule: Q04DX003 (ip), vehicle: saline with Tween-80); 0 of 6 (dose: 200.0 mg/kg/injection, schedule: Q04DX003 (ip), vehicle: saline with Tween-80); 0 of 6 under setting [6].
For `CSc1cc(C(=O)O)nc(SC)n1`, the survivor count (dose: 200.0 mg/kg/injection, schedule: Q01DX Z (ip), vehicle: methylcellulose (MC)) is 0 of 6.
`c1ccc2c[n+]3cc4ccccc4cc3cc2c1`: the survivor count (dose: 55.0 mg/kg/injection, schedule: Q01DX009 (ip), vehicle: saline) is on record as 1 of 6; the survivor count (dose: 80.0 mg/kg/injection, schedule: Q01DX009 (ip), vehicle: saline) is given as 0 of 6; the survivor count under setting [1] is 0 of 6; the survivor count under setting [2] is 0 of 6; the survivor count under setting [3] is reported as 1 of 6.
For `O=P(c1ccccc1)(N1CC1)N1CC1`, the survivor count is on record as 4 of 6 (dose: 60.0 mg/kg/injection, schedule: Q01DX001 (ip), vehicle: saline) and 0 of 6 (dose: 120.0 mg/kg/injection, schedule: Q01DX001 (ip), vehicle: saline).
Take `Nc1snc2ncccc12`: the survivor count (dose: 400.0 mg/kg/injection, schedule: Q04DX003 (ip), vehicle: Klucel (hydroxypropylcellulose) (HPC)) is 0 of 6.
With `CN/N=C/c1cc(=O)[nH]c(=O)[nH]1`, the survivor count under setting [7] is recorded as 2 of 4.
As to `CN=C(N)Nc1ccc(NC(=O)c2ccc(C(=O)Nc3ccc(NC(N)=NC)cc3)cc2)cc1`, the T/C runs as follows: (dose: 1.0 mg/kg/injection, schedule: Q01DX015 (ip), vehicle: methylcellulose (MC)) 136 % of control; (dose: 1.0 mg/kg/injection, schedule: Q01DX Z (ip), vehicle: carboxymethylcellulose (CMC)) 138 % of control; (dose: 5.0 mg/kg/injection, schedule: Q01DX001 (ip), vehicle: methylcellulose (MC)) 137 % of control; (dose: 8.0 mg/kg/injection, schedule: Q01DX015 (ip), vehicle: methylcellulose (MC)) 134 % of control; (dose: 8.0 mg/kg/injection, schedule: Q01DX Z (ip), vehicle: carboxymethylcellulose (CMC)) 144 % of control; (dose: 10.0 mg/kg/injection, schedule: Q01DX001 (ip), vehicle: methylcellulose (MC)) 106, 119, 132, 139 % of control. Further, the T/C is 121, 143, 162, 176 % of control (dose: 20.0 mg/kg/injection, schedule: Q01DX001 (ip), vehicle: methylcellulose (MC)) and 138 % of control [9 of 10 alive] (dose: 30.0 mg/kg/injection, schedule: Q01DX001 (ip), vehicle: methylcellulose (MC)). Moreover, the survivor count (dose: 32.0 mg/kg/injection, schedule: Q01DX015 (ip), vehicle: methylcellulose (MC)) is 0 of 6; the survivor count (dose: 34.0 mg/kg/injection, schedule: Q01DX Z (ip), vehicle: carboxymethylcellulose (CMC)) is 6 of 6; the survivor count (dose: 40.0 mg/kg/injection, schedule: Q01DX001 (ip), vehicle: methylcellulose (MC)) is reported as 1 of 6; the survivor count (dose: 68.0 mg/kg/injection, schedule: Q01DX Z (ip), vehicle: carboxymethylcellulose (CMC)) is reported as 0 of 6; the survivor count (dose: 136.0 mg/kg/injection, schedule: Q01DX Z (ip), vehicle: carboxymethylcellulose (CMC)) is recorded as 0 of 6.
In the case of `Cc1cc(N(CCCl)CCCl)ccc1N=Nc1ccccc1C(=O)[O-].Cc1cc(N(CCCl)CCCl)ccc1N=Nc1ccccc1C(=O)[O-].[Cu+2]`, the survivor count was 4 of 6 (dose: 7.5 mg/kg/injection, schedule: Q01DX015 (ip), vehicle: carboxymethylcellulose (CMC)); 6 of 6 (dose: 15.0 mg/kg/injection, schedule: Q01DX015 (ip), vehicle: carboxymethylcellulose (CMC)); 0 of 6 (dose: 30.0 mg/kg/injection, schedule: Q01DX015 (ip), vehicle: carboxymethylcellulose (CMC)); 0 of 6 (dose: 60.0 mg/kg/injection, schedule: Q01DX015 (ip), vehicle: carboxymethylcellulose (CMC)).
Regarding `CCN1CCC2CN(C)CCN2C1=S` (configuration not stated), the survivor count is reported as 1 of 6 under setting [8] and 0 of 6 under setting [7].
With `CC(=O)c1cc(C(C)=O)c2cc(C)cc(O)c2c1O`, the survivor count is on record as 0 of 6 under setting [8] and 0 of 6 under setting [7].
For `C1CC2CCCN2C1`, the survivor count is listed as 4 of 6 under setting [1], 2 of 6 under setting [2] and 1 of 6 under setting [3].
With `CCC(C)[P+](c1ccccc1)(c1ccccc1)c1ccccc1` (configuration not stated), the survivor count (dose: 28.0 mg/kg/injection, schedule: Q01DX015 (ip), vehicle: carboxymethylcellulose (CMC)) is listed as 3 of 6; the survivor count (dose: 50.0 mg/kg/injection, schedule: Q04DX002 (ip), vehicle: Klucel (hydroxypropylcellulose) (HPC)) is given as 2 of 3; the survivor count (dose: 56.0 mg/kg/injection, schedule: Q01DX015 (ip), vehicle: carboxymethylcellulose (CMC)) is 0 of 6; the survivor count (dose: 100.0 mg/kg/injection, schedule: Q04DX002 (ip), vehicle: Klucel (hydroxypropylcellulose) (HPC)) was 2 of 3; the survivor count (dose: 200.0 mg/kg/injection, schedule: Q04DX002 (ip), vehicle: Klucel (hydroxypropylcellulose) (HPC)) is listed as 0 of 3; the survivor count (dose: 400.0 mg/kg/injection, schedule: Q04DX002 (ip), vehicle: Klucel (hydroxypropylcellulose) (HPC)) is 1 of 3.
Regarding `CC1(C)CC(N=Cc2ccccc2O)CC(C)(C)N1O.CC1(C)CC(N=Cc2ccccc2O)CC(C)(C)N1O.[Co]`, the survivor count under setting [6] was 2 of 4.
Turning to `CC(C1CCC/C(=N\NC(N)=O)C1)[N+](=O)[O-]` (configuration not stated), the survivor count was 3 of 6 (dose: 200.0 mg/kg/injection, schedule: Q01DX009 (ip), vehicle: saline with Tween-80) and 1 of 6 under setting [6].
As to `Cc1c2ccccc2cc2cccc[n+]12`, the T/C (dose: 40.0 mg/kg/injection, schedule: Q04DX003 (ip), vehicle: saline) is 129 % of control; the T/C (dose: 60.0 mg/kg/injection, schedule: Q04DX003 (ip), vehicle: saline) was 129 % of control [4 of 6 alive]; the T/C (dose: 80.0 mg/kg/injection, schedule: Q04DX003 (ip), vehicle: saline) was 125 % of control. For the same molecule, the survivor count is, setting by setting: (dose: 80.0 mg/kg/injection, schedule: Q01DX001 (ip), vehicle: saline) 1 of 6; (dose: 120.0 mg/kg/injection, schedule: Q04DX003 (ip), vehicle: saline) 1 of 6; (dose: 180.0 mg/kg/injection, schedule: Q04DX003 (ip), vehicle: saline) 1 of 6; (dose: 270.0 mg/kg/injection, schedule: Q04DX003 (ip), vehicle: saline) 3 of 6.
